Assay results taken from the supplement of paper PMC10849652.
This is one part of the list.

Amino acid sequences for entries named in this document (tags omitted). A change or cut given only in a name is not applied to a line headed by its entry.
UniProt O00512: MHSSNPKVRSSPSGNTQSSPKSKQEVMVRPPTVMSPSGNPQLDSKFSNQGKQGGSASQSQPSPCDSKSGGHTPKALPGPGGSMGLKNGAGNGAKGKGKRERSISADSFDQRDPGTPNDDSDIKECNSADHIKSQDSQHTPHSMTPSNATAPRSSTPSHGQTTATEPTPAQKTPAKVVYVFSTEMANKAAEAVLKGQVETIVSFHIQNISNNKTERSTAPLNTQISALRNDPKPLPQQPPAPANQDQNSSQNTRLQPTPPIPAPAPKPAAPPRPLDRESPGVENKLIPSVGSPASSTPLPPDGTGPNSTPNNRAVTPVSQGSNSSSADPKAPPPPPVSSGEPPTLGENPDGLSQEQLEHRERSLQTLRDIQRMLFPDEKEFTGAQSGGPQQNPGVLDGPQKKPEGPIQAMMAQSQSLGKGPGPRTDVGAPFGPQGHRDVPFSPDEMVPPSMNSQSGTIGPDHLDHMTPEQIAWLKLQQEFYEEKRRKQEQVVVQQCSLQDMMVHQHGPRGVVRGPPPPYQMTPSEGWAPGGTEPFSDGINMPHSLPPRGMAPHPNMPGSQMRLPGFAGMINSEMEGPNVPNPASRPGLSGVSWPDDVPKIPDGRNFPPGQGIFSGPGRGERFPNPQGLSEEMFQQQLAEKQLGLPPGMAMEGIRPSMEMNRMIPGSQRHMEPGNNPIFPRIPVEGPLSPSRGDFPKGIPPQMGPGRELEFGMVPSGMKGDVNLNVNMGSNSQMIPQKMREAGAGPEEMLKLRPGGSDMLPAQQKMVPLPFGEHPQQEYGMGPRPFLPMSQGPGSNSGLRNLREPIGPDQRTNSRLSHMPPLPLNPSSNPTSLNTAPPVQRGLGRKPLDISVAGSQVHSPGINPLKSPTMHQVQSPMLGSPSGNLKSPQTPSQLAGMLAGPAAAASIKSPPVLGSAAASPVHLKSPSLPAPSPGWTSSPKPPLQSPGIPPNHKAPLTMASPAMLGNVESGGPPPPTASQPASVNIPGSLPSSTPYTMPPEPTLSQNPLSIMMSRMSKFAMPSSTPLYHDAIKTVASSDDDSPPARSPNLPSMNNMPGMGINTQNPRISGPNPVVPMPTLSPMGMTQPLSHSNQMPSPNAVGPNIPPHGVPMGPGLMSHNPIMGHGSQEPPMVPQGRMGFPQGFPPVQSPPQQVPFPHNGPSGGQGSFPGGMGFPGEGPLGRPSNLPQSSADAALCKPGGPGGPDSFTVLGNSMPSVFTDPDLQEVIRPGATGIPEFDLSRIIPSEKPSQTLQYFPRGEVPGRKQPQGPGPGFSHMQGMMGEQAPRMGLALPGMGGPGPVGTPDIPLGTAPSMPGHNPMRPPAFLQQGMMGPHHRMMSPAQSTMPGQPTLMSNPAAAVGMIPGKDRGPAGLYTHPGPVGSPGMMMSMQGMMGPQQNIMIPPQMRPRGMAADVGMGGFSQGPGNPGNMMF
UniProt Q9H7T9: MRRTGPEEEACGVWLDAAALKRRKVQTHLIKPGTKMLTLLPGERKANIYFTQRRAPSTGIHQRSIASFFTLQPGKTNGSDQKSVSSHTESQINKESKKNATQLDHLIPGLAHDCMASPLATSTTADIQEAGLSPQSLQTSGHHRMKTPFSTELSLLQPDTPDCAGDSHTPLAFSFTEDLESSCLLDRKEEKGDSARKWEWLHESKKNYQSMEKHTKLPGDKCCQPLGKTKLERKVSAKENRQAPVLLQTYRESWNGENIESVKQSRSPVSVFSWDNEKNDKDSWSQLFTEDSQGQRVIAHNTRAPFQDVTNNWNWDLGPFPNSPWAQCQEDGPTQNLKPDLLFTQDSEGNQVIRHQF
UniProt Q9NYM9: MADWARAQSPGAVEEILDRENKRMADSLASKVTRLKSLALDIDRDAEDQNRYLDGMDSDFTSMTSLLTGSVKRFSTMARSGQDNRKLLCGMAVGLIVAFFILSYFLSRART
UniProt Q9H6U6: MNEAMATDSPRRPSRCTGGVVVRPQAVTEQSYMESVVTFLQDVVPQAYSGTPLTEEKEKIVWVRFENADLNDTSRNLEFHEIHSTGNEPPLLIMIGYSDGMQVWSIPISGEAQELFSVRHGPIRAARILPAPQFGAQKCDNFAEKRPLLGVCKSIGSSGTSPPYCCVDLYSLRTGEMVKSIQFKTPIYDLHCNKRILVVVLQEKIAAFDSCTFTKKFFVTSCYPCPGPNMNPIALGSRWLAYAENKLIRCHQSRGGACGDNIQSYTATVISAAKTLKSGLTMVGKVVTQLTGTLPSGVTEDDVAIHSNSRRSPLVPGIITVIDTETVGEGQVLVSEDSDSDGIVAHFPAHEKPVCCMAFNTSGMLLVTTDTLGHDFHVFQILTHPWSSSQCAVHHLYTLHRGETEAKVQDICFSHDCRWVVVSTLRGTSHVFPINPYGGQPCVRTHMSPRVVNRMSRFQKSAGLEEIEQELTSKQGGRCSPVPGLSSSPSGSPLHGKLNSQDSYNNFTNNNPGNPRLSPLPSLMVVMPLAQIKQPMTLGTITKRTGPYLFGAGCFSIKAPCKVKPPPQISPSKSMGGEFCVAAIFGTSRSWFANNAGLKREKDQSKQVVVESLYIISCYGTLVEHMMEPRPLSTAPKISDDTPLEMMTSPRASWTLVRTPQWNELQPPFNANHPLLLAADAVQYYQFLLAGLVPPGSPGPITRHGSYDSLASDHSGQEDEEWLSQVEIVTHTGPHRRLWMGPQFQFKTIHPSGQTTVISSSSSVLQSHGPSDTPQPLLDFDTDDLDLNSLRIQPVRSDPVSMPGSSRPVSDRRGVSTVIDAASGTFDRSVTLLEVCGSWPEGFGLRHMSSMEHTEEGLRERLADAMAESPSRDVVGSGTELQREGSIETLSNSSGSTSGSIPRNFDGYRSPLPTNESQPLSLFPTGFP
UniProt Q9UIG0: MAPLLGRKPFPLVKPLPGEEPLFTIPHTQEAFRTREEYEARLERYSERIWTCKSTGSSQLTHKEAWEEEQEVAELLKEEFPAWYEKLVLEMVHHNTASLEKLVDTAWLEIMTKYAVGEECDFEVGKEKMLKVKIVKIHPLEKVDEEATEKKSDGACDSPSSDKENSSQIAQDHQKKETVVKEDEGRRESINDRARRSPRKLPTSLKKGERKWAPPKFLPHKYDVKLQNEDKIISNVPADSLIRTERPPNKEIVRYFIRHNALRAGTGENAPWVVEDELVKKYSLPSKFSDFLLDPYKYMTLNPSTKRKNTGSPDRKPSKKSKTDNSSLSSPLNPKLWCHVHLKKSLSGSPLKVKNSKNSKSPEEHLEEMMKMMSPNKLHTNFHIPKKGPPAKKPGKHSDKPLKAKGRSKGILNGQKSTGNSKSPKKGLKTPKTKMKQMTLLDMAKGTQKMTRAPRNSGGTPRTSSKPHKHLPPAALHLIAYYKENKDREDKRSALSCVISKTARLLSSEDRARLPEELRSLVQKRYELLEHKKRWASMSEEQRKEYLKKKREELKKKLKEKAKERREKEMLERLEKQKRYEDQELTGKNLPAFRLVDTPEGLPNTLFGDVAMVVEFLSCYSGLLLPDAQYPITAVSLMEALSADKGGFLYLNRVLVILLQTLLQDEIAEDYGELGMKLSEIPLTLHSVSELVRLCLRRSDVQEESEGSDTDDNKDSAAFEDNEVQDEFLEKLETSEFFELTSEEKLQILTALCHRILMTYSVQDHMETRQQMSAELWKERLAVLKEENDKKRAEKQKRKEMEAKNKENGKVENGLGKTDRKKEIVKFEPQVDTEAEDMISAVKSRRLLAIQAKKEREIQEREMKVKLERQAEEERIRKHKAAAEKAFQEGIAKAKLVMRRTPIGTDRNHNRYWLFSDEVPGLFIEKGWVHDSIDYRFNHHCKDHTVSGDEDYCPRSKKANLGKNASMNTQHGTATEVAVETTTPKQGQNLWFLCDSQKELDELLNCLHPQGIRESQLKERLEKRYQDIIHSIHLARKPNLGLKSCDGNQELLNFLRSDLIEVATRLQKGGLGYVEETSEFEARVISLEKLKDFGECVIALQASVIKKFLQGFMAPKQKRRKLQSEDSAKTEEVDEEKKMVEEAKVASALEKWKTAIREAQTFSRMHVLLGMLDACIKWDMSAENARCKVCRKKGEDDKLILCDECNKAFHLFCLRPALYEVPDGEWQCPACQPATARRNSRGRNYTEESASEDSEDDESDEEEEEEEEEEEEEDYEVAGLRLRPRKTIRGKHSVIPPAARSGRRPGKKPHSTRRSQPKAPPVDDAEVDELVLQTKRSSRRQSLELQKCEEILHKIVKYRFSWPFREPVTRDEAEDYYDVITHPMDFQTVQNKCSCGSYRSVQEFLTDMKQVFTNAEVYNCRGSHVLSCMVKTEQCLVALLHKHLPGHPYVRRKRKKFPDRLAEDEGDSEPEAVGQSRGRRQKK
UniProt O43521, whole entry, looked up: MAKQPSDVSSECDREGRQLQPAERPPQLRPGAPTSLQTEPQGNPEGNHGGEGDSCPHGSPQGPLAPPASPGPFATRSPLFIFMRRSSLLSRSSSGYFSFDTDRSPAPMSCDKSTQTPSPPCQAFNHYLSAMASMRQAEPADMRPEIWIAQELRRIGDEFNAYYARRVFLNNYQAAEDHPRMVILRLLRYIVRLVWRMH
UniProt P38398, whole entry, looked up: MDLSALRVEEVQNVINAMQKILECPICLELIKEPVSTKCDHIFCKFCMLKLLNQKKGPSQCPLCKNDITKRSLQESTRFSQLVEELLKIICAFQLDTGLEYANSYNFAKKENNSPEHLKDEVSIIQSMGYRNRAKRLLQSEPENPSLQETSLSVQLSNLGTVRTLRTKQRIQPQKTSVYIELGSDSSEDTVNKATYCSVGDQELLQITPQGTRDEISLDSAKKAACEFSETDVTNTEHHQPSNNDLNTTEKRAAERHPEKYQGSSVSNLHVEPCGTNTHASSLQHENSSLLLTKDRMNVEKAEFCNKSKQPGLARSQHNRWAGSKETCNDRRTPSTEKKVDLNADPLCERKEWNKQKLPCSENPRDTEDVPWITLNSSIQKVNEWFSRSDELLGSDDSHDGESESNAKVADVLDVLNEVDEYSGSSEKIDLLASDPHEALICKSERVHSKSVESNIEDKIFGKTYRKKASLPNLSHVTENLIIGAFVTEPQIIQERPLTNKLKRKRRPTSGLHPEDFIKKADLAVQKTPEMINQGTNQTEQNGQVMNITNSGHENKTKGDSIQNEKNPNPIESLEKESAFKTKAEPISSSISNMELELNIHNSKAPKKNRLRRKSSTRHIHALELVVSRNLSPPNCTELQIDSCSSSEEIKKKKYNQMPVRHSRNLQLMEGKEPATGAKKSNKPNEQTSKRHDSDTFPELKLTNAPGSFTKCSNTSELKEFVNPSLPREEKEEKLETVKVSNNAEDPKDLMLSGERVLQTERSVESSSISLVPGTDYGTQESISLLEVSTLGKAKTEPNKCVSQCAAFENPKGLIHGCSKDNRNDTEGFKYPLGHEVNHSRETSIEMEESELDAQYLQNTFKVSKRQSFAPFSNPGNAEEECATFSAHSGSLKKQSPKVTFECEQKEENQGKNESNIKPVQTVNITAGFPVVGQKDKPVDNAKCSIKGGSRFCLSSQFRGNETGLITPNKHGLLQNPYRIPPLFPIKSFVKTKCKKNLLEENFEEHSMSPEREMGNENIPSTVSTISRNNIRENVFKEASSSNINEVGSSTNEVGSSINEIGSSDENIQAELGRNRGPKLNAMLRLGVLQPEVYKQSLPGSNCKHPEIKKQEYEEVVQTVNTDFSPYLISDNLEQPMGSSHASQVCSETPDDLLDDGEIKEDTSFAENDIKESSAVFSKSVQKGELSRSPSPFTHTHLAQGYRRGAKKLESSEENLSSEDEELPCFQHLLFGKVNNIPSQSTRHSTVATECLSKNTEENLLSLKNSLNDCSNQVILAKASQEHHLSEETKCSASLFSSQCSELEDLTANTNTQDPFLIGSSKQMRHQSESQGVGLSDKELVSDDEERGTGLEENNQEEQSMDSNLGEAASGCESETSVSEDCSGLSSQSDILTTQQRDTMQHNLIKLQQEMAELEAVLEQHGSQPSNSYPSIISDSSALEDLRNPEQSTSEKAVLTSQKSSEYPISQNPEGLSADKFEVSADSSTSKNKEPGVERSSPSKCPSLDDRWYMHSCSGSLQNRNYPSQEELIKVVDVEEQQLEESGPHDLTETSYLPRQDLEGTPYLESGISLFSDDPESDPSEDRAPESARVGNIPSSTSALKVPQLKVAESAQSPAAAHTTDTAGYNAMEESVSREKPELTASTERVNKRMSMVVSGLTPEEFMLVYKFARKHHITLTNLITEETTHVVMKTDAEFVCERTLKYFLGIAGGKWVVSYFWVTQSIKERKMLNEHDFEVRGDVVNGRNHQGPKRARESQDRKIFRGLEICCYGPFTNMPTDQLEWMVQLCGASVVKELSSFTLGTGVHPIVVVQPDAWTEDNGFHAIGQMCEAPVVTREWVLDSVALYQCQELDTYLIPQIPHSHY
UniProt Q4VC05, whole entry, looked up: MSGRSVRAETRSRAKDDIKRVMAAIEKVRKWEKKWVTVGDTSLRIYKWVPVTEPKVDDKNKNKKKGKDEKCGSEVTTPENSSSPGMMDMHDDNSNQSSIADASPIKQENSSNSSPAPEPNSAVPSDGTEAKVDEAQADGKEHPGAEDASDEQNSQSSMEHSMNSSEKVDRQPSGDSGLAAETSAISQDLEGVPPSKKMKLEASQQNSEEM

Compound: Cn1cc(-c2ccc3c(c2)CCN3C(=O)Cc2cccc(C(F)(F)F)c2)c2c(N)ncnc21
Assay: log2 fold change, soluble protein after heating vs DMSO (PISA); higher = thermal stabilisation; K562 cells, 10 uM, 30 min; active = over 0.2 and 3.5 SD of the protein, either way, in both replicates (recomputed)
Summary of the method: (§1)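 K562 cells at 2×10^6 cells/mL were exposed to 10 μM compound for 30 min, then aliquots were heated for 3 min across 48°C-58°C, pooled, and extracted in PBS containing 0.5% NP-40 at 4°C. The supernatant after 21,000xg for 90 min was taken as soluble protein and measured by TMTpro 16plex LC-MS/MS with channel sums equalised. Thermal stability is reported relative to control samples, with values from duplicates. Fold changes are given on a log2 scale.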

Target | log2 fold change
BCL9 (UniProt O00512) | inactive: -0.161
AUNIP isoform 2 (UniProt Q9H7T9) | inactive: -0.006
BET1L (UniProt Q9NYM9) | inactive: 0.038
AURKAIP1 (UniProt Q9NWT8) | inactive: -0.296
BLZF1 (UniProt Q9H2G9) | inactive: -0.154
BCL7B (UniProt Q9BQE9) | inactive: 0.115
BNIP3L (UniProt O60238) | inactive: 0.073
BAIAP2 isoform 4 (UniProt Q9UQB8) | inactive: -0.018
ATRX (UniProt P46100) | inactive: -0.187
BCAS3 isoform 8 (UniProt Q9H6U6) | inactive: 0.009
BAZ1B (UniProt Q9UIG0) | inactive: 0.004
BCL2L11 (UniProt O43521) | inactive: 0.082
ATXN2 (UniProt F8W0B5) | inactive: 0.201

Compound: Cn1cc(-c2ccc3nnc(C(F)(F)c4ccc5ncccc5c4)n3n2)cn1
Assay: as above
Summary of the method: as §1

Target | log2 fold change
BORCS8 (UniProt Q96FH0) | inactive: -0.07
BCL9 (UniProt O00512) | inactive: 0.094
BRCA1 isoform 7 (UniProt P38398) | inactive: 0.054
BET1L (UniProt Q9NYM9) | inactive: 0.033
AURKAIP1 (UniProt Q9NWT8) | inactive: -0.072
B3GALT6 (UniProt Q96L58) | inactive: -0.054
BNIP3L (UniProt O60238) | inactive: 0.015
BRAF, A0A2R8Y8E0 | inactive: 0.052
AZIN1 (UniProt O14977) | inactive: -0.018
BOD1 (UniProt Q96IK1) | inactive: 0.05
BCL2L11 (UniProt O43521) | inactive: -0.22
ATXN2 (UniProt F8W0B5) | inactive: 0.17

Compound: Cn1cncc1[C@@](N)(c1ccc(Cl)cc1)c1ccc2c(c1)c(-c1cccc(Cl)c1)cc(=O)n2C [tipifarnib]
Assay: as above
Summary of the method: as §1

Target | log2 fold change
BFAR (UniProt Q9NZS9) | inactive: -0.101
BCL9 (UniProt O00512) | inactive: 0.118
BRCA1 isoform 7 (UniProt P38398) | inactive: 0.179
AUNIP isoform 2 (UniProt Q9H7T9) | active: -0.844
BET1L (UniProt Q9NYM9) | inactive: 0.045
BCL7A isoform 2 (UniProt Q4VC05) | inactive: -0.027
BAHD1 (UniProt Q8TBE0) | inactive: 0.112
BCAS3 isoform 8 (UniProt Q9H6U6) | inactive: -0.037

Compound: FC(F)(F)c1ccc(/C=C/c2nc(COc3ccc(CCCCn4ccnn4)cc3)co2)cc1 [mubritinib]
Assay: as above
Summary of the method: as §1

Target | log2 fold change
BRMS1 (UniProt Q9HCU9) | inactive: 0.179
BFAR (UniProt Q9NZS9) | inactive: 0.121
BRCA1 isoform 7 (UniProt P38398) | inactive: -0.163
BET1L (UniProt Q9NYM9) | inactive: 0.088
AURKAIP1 (UniProt Q9NWT8) | inactive: -0.041
BCL7B (UniProt Q9BQE9) | inactive: -0.036
BNIP3L (UniProt O60238) | inactive: -0.011
BRAF, A0A2R8Y8E0 | inactive: 0.113
BCL7C (UniProt Q8WUZ0) | inactive: -0.707
BAHD1 (UniProt Q8TBE0) | inactive: -0.019
BAP18 isoform 3 (UniProt Q8IXM2) | inactive: 0.117
BOD1 (UniProt Q96IK1) | inactive: -0.066
BAZ1B (UniProt Q9UIG0) | inactive: 0.079
BCL2L11 (UniProt O43521) | inactive: -0.01
BIN1 (UniProt O00499) | inactive: 0.098
ATXN2 (UniProt F8W0B5) | inactive: 0.045

Compound: NC(=O)Nc1cc(-c2cccc(F)c2)sc1C(=O)N[C@H]1CCCNC1
Assay: as above
Summary of the method: as §1

Target | log2 fold change
BPTF (UniProt Q12830) | inactive: 0.141
B4GALT2 isoform 3 (UniProt O60909) | inactive: -0.034
BCL9 (UniProt O00512) | inactive: -0.026
BRCA1 isoform 7 (UniProt P38398) | inactive: -0.477
AUNIP isoform 2 (UniProt Q9H7T9) | inactive: -0.194
BET1L (UniProt Q9NYM9) | inactive: -0.051
AURKAIP1 (UniProt Q9NWT8) | inactive: 0.113
BLZF1 (UniProt Q9H2G9) | inactive: 0.088
BAIAP2 isoform 4 (UniProt Q9UQB8) | inactive: 0.019
BPIFB1 (UniProt Q8TDL5) | inactive: 1.73
B3GNT8 (UniProt Q7Z7M8) | inactive: 0.165
BCL7A isoform 2 (UniProt Q4VC05) | inactive: 0.035
BHMT (UniProt Q93088) | inactive: -0.035
BAZ1B (UniProt Q9UIG0) | inactive: 0.048
BCL2L11 (UniProt O43521) | inactive: -0.054
ATXN2 (UniProt F8W0B5) | inactive: 0.03

Compound: NC(=O)c1cnc(N[C@@H]2CCCC[C@@H]2N)nc1Nc1cccc(-n2nccn2)c1
Assay: as above
Summary of the method: as §1

Target | log2 fold change
AURKB isoform 5 (UniProt Q96GD4) | inactive: -0.107
BRMS1 (UniProt Q9HCU9) | inactive: 0.15
BCL9 (UniProt O00512) | inactive: -0.022
AUNIP isoform 2 (UniProt Q9H7T9) | inactive: -0.037
BET1L (UniProt Q9NYM9) | inactive: -0.033
AURKAIP1 (UniProt Q9NWT8) | inactive: 0.045
BRAF, A0A2R8Y8E0 | inactive: 0.214
BCL7A isoform 2 (UniProt Q4VC05) | inactive: -0.003
ATRX (UniProt P46100) | inactive: 0.08
BCAS3 isoform 8 (UniProt Q9H6U6) | inactive: 0.015
BCL2L11 (UniProt O43521) | inactive: 0.009
ATXN2 (UniProt F8W0B5) | inactive: 0.018
